Test results as given in PubChem BioAssay AID540276 (National Center for Advancing Translational Sciences (NCATS), 2011).
In all, about 300,000 compounds went through this assay and about 5,400 (1.8%) were called active. Inconclusive means that the source gave no clear call. Such entries were picked first, then a sample of the others. Calls come from the whole dose curve; tested in HEK293 cells. A potency beside an inconclusive call is a rough fit, not a confirmed value.

Test: qHTS for inhibitors of binding or entry into cells for Marburg Virus
Conditions: Marburg virus pseudotyped entry inhibition, cell reporter; series mostly up to 37.8 µM
Potency is the fitted concentration of half-maximal effect.

Compound | Potency
Cc1cc(N)c(-n2cc3c(c2-c2ccc(Br)cc2)c(=O)n(C)c(=O)n3C)cc1C | inactive
CC(C)c1ccccc1NC(=O)COC(=O)c1cc(=O)[nH]c(=O)[nH]1 | inconclusive: 17.8 µM [activator, single point]
NS(=O)(=O)c1cccc(NC(=O)CSc2nc3ccccc3n2-c2ccccc2)c1 | inconclusive: 15.8 µM [inhibitor, single point]
Cc1cc(C)cc(Oc2coc3cc(OCC(=O)NC4CCCCC4)ccc3c2=O)c1 | inconclusive: 22.4 µM [inhibitor, single point]
Cc1cc2ccccc2n1CCNC(=O)c1ccccc1 | inconclusive: 35.5 µM [inhibitor, partial curve, poor fit]
Cc1ccc(-c2nnc(-c3cccc(NC(=O)c4cccs4)c3)o2)cc1 | inactive
Cc1ccc(CNC(=O)C2CCN(S(=O)(=O)c3cccs3)CC2)cc1 | inactive
CC(Cc1ccccc1Sc1ccc(O)cc1)N(C)C (centres undefined) | inconclusive: 5.62 µM [activator, single point]
Cc1ccccc1Nc1nc(-c2ccccc2)c(C(=O)Nc2cccnc2)s1 | inconclusive: 20.6 µM [inhibitor, partial curve, poor fit]
COc1ccc(Cl)cc1NC(=O)CN(C)C(=O)c1cc(-c2ccncc2)nc2ccccc12 | inconclusive: 35.5 µM [inhibitor, single point]
COc1cccc(CC(=O)Nc2ccc3c(c2)CCC3)c1 | inconclusive: 35.5 µM [inhibitor, single point]
CCOC(=O)c1c(NC(=O)CSc2nnc(-c3ccncc3)n2Cc2ccco2)sc(C)c1C | inconclusive: 25.9 µM [inhibitor, partial curve, poor fit]
O=C(NC(=S)N1CCN(c2ccc(Cl)cc2[N+](=O)[O-])CC1)c1cccs1 | inconclusive: 3.16 µM [inhibitor, single point]
N#CC1=C(N)N(c2cccc(Cl)c2)C2=C(C(=O)CCC2)C1c1cc(CN2CCOCC2)cs1 (centres undefined) | inactive
CC(C(=O)Nc1ccc(C#N)cc1)N(C)CC(=O)Nc1ccccc1Br (centres undefined) | inconclusive: 25.1 µM [inhibitor, single point]
CC(C)N1C(=O)C(O)(c2c[nH]c3ccccc23)c2ccccc21 (centres undefined) | inconclusive: 35.5 µM [inhibitor, single point]
Cc1cc(=O)oc2cc(NC(=O)c3cc([N+](=O)[O-])ccc3N3CCOCC3)ccc12 | inconclusive: 3.55 µM [inhibitor, partial curve, poor fit]
Cc1ccc2cc(C#N)c(N3CCCC3)nc2c1C | inactive
COc1cccc(NC(=O)Nc2cc(C)ccc2OC)c1 | inconclusive: 35.5 µM [inhibitor, single point]
CC(c1ccco1)N(C(=O)C12CC3CC(CC(C)(C3)C1)C2)c1ccccn1 (centres undefined) | inconclusive: 12.6 µM [inhibitor, partial curve, poor fit]
COc1cc(NC(=O)CN2CCCCCC2)cc(OC)c1 | inconclusive: 35.5 µM [activator, partial curve, poor fit]
O=C(c1ccc(NS(=O)(=O)c2cccc(C(F)(F)F)c2)cc1)N1CCCC1 | inconclusive: 0.112 µM [inhibitor, full curve, poor fit]
NS(=O)(=O)c1ccc(CNC(=O)c2sccc2-c2ccccc2)cc1 | inactive

Reprinted from the entries so far (3 entries):
Compound | Potency
COc1ccc(Cl)cc1NC(=O)CN(C)C(=O)c1cc(-c2ccncc2)nc2ccccc12 | inconclusive: 35.5 µM [inhibitor, single point]
COc1cccc(CC(=O)Nc2ccc3c(c2)CCC3)c1 | inconclusive: 35.5 µM [inhibitor, single point]
CCOC(=O)c1c(NC(=O)CSc2nnc(-c3ccncc3)n2Cc2ccco2)sc(C)c1C | inconclusive: 25.9 µM [inhibitor, partial curve, poor fit]

Remaining list, next part.

Compound | Potency
COc1ccc(C(C(=O)NC2CCCCC2)N(C(=O)c2ccco2)c2ccccc2OC)cc1 (centres undefined) | inconclusive: 22.4 µM [inhibitor, single point]
CCOC(=O)CC(=O)CSCC(=O)Nc1ccc(C)cc1 | inactive
CCOc1ccc(CC(=O)Nc2c(C(N)=O)oc3ccccc23)cc1OCC | inactive
CC(Nc1ccc(Br)cc1)C(=O)Nc1cccc(S(=O)(=O)N2CCOCC2)c1 (centres undefined) | inactive
COc1ccccc1C=NN=Cc1ccccc1OC | inconclusive: 5.62 µM [activator, partial curve, poor fit]
O=C(CN1CCN(c2ccccc2)CC1)Nc1ccc(F)cc1 | inactive
NC(=O)C1CCN(C(=O)c2ccc([N+](=O)[O-])cc2NC(=O)c2cccs2)CC1 | inactive
COC(=O)[C@H](Cc1ccccc1)NC(=O)NCCc1ccc(OC)cc1 | inconclusive: 0.794 µM [activator, single point]
CCN=C1S/C(=C\c2cc(OCC)c(O)cc2Br)C(=O)N1CC | inconclusive: 35.5 µM [inhibitor, single point]
CN(C)CCNC(=O)c1[nH]nc2c1CCc1ccccc1-2 | inconclusive: 1.58 µM [activator, partial curve]
COc1ccc(CCNC(=O)c2ccc3c(c2)OCO3)cc1 | inconclusive: 8.91 µM [activator, single point]
Cc1ccc(-c2cc(-c3cccc(F)c3)n[nH]2)c(O)c1 | inconclusive: 2.51 µM [activator, partial curve, poor fit]
COc1ccc(Cl)cc1C(=O)NNC(=O)CCNC(C)=O | inconclusive: 1.12 µM [activator, single point]
O=C(NCCS(=O)(=O)NC1CCCC1)c1ccccc1 | inactive
Fc1ccc(-c2csc3ncnc(N4CCN(c5ccccc5)CC4)c23)cc1 | inconclusive: 12.6 µM [inhibitor, partial curve, poor fit]
O=C(O)Cn1c(=O)c2c(c3ccccc31)CCC2 | inactive
Cc1cc(Nc2cccc(Cl)c2)nc(NCc2ccccc2)n1 | inconclusive: 23.1 µM [inhibitor, single point]
Cc1ccc(S(=O)(=O)NC(CC(C)C)C(=O)N2CCOCCOCCOCC2)cc1 (centres undefined) | inconclusive: 35.5 µM [inhibitor, single point]
CCC(C(=O)Nc1nc(C)c(C)s1)c1ccccc1 (centres undefined) | inactive
Clc1ccc(C(CCN2CCCC2)Cc2ccccc2)cc1 (centres undefined) | inconclusive: 7.94 µM [inhibitor, partial curve, poor fit]
Cc1c(C)c2ccc(OCC(=O)Nc3ccc(N4CCC(C)CC4)cc3)cc2oc1=O | inconclusive: 1.78 µM [inhibitor, full curve]
O=C(NCCCN1CCCC1=O)c1cccc(NS(=O)(=O)c2ccc(Br)cc2)c1 | inconclusive: 35.5 µM [inhibitor, single point]
Cc1cc(-c2ccc(C(C)C)c(S(=O)(=O)N3CCN(c4ccccc4)CC3)c2)on1 | inconclusive: 1 µM [inhibitor, partial curve, poor fit]

Compound | Potency
CC(SCC(=O)Nc1ccccc1Br)c1nc2ccccc2c(=O)[nH]1 (centres undefined) | inconclusive: 0.708 µM [inhibitor, single point]
COc1ccc(-n2c(C)cc(/C=C3\SC(=S)N(Cc4ccco4)C3=O)c2C)cc1 | inactive
COc1ccc(C2C(C(=O)N3CCN(c4ccccc4)CC3)c3ccccc3C(=O)N2C)cc1 (centres undefined) | inconclusive: 13 µM [inhibitor, partial curve, poor fit]
CCC(=O)Nc1nnc(SCC(=O)NCc2ccc3c(c2)OCO3)s1 | inconclusive: 2 µM [activator, partial curve, poor fit]
O=C(COC(=O)CNC(=O)c1ccccc1Cl)Nc1ncc(C(F)(F)F)cc1Cl | inconclusive: 14.1 µM [activator, single point]
C=CCc1ccccc1OCC(O)CN1CCN(C(=O)OCC)CC1 (centres undefined) | inactive
Clc1cccc(CNc2cc(-c3ccccc3)nc3nncn23)c1 | inconclusive: 35.5 µM [inhibitor, single point]
CN(C)C=C1C(=O)c2ccccc2C1=O | inactive
CCO[C@H](c1cc(OC)cc([N+](=O)[O-])c1OC)[C@H](C)[C@@H](OC)[C@H](C)/C=C/CC(=O)OC | inactive
COc1ccc(C2(c3ccc(OC)cc3)NC(=O)N(CC(=O)N(C)C)C2=O)cc1 | inactive
COc1cc(C(=O)N2CC(C)OC(C)C2)c([N+](=O)[O-])cc1OC (centres undefined) | inactive
Cc1cc(Cl)ccc1N=C1N=C(N)c2ccccc21 | inconclusive: 5.62 µM [inhibitor, partial curve, poor fit]
CCOC(=O)c1[nH]cnc1C(=O)Nc1cccc(N)n1 | inconclusive: 0.1 µM [activator, full curve, poor fit]
CC(C)C(NC(=O)C(c1ccccc1)c1ccccc1)c1nc2ccccc2[nH]1 (centres undefined) | inconclusive: 15.8 µM [inhibitor, single point]
COCC1CCCCN1C(=O)c1ccc2oc(CCc3ccccc3)nc2c1 (centres undefined) | inconclusive: 14.1 µM [inhibitor, single point]
CC1(CCc2ccccc2)NC(=S)N(c2ccccc2)N1 (centres undefined) | inactive
O=C1[C@@H]2Cc3c([nH]c4ccccc34)C(c3ccccc3)N2C(=O)CN1C1CC1 (some centres undefined) | inconclusive: 12.6 µM [inhibitor, single point]
CCCCC(c1nnnn1CS(=O)(=O)c1ccc(C)cc1)N1CCC(C(N)=O)CC1 (centres undefined) | inconclusive: 35.5 µM [activator, single point]
Cc1ccc(C(=O)N/C(=C\c2cccs2)C(=O)NCCCn2ccnc2)cc1 | inactive
CN(Cc1cn(C)nc1-c1cccc(Cl)c1)CC1CCCCO1 (centres undefined) | inconclusive: 14.1 µM [inhibitor, single point]
CCCCOc1ccc(C(=O)N2CCCC2)cc1 | inconclusive: 16.4 µM [activator, single point]
COc1ccc(OC)c(-c2csc(NC(=O)c3ccc(OCC4CCCO4)cc3)n2)c1 (centres undefined) | inactive
COc1ccc(O)c(/C=N/NC(=O)c2cccc(N3CCCC3=O)c2)c1 | inconclusive: 22.4 µM [inhibitor, single point]
